Values of other authors as cited in patent US4278797A, “Intermediates to phenylmorphans and method of preparation thereof” (priority 1980, dated 1981).

Conditions: literature; cited from earlier work

With `CN1CC[C@]23c4c5ccc(O)c4O[C@H]2[C@@H](O)C=C[C@H]3[C@H]1C5` [Morphine] as the compound, how does the physical dependence capacity read?
The physical dependence capacity was “causes severe physical dependence”.
